Sequences and labels used below:
B1: myc-SH3BP2 (wild-type) (protein, UniProt P78314 1-561)
chain: MAAEEMHWPVPMKAIGAQNLLTMPGGVAKAGYLHKKGGTQLQLLKWPLRFVIIHKRCVYYFKSSTSASPQGAFSLSGYNRVMRAAEETTSNNVFPFKIIHISKKHRTWFFSASSEEERKSWMALLRREIGHFHEKKDLPLDTSDSSSDTDSFYGAVERPVDISLSPYPTDNEDYEHDDEDDSYLEPDSPEPGRLEDALMHPPAYPPPPVPTPRKPAFSDMPRAHSFTSKGPGPLLPPPPPKHGLPDVGLAAEDSKRDPLCPRRAEPCPRVPATPRRMSDPPLSTMPTAPGLRKPPCFRESASPSPEPWTPGHGACSTSSAAIMATATSRNCDKLKSFHLSPRGPPTSEPPPVPANKPKFLKIAEEDPPREAAMPGLFVPPVAPRPPALKLPVPEAMARPAVLPRPEKPQLPHLQRSPPDGQSFRSFSFEKPRQPSQADTGGDDSDEDYEKVPLPNSVFVNTTESCEVERLFKATSPRGEPQDGLYCIRNSSTKSGKVLVVWDETSNKVRNYRIFEKDSKFYLEGEVLFVSVGSMVEHYHTHVLPSHQSLLLRHPYGYTGPR

Protein sequences, listed by entry. Tags and fused reporters are not part of them. Lines headed by an entry give the natural chain unless they say otherwise; changes in a name come on top. Residues count along the entry.
UniProt O00160: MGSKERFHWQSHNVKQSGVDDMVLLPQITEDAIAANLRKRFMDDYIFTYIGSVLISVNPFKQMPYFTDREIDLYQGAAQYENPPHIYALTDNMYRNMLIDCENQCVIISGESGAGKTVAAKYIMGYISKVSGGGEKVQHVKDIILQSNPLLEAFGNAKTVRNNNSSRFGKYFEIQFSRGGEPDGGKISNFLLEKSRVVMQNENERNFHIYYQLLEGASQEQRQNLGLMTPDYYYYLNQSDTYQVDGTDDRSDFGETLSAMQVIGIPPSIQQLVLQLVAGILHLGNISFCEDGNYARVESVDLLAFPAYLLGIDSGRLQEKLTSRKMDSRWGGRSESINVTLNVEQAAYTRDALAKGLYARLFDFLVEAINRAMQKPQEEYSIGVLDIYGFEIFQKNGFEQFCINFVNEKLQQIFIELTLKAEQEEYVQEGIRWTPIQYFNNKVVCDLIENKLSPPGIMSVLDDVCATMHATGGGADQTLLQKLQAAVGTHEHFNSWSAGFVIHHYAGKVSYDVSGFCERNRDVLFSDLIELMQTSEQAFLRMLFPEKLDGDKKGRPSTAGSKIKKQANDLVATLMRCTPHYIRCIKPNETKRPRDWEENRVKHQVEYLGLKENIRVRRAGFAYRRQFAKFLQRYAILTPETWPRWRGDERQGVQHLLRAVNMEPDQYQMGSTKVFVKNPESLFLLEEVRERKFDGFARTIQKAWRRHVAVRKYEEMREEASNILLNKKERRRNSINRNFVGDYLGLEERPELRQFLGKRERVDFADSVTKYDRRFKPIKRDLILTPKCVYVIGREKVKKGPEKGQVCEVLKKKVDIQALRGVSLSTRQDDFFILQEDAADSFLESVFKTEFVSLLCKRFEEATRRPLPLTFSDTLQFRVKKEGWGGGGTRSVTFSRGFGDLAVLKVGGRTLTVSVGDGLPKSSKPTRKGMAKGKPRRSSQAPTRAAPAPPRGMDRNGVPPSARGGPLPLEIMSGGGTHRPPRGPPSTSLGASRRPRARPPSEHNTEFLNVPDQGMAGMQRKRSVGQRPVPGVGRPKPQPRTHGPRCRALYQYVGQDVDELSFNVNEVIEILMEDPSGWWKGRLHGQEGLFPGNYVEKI
UniProt Q9ULH1, residues 589-1129: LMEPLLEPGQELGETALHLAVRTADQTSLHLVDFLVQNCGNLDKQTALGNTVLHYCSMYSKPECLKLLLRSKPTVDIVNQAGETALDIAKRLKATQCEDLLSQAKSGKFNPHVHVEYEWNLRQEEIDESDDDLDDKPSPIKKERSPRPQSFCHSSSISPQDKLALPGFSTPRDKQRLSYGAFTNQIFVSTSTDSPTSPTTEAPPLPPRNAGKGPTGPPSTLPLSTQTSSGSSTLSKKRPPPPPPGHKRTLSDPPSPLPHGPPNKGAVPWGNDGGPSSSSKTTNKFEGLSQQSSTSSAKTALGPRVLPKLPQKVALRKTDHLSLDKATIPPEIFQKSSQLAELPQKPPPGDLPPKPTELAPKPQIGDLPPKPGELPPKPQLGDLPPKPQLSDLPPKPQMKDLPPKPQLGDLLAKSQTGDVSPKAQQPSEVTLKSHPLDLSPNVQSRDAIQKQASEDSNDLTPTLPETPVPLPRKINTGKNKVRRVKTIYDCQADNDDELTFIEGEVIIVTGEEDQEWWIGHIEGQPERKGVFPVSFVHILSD
UniProt Q96B97: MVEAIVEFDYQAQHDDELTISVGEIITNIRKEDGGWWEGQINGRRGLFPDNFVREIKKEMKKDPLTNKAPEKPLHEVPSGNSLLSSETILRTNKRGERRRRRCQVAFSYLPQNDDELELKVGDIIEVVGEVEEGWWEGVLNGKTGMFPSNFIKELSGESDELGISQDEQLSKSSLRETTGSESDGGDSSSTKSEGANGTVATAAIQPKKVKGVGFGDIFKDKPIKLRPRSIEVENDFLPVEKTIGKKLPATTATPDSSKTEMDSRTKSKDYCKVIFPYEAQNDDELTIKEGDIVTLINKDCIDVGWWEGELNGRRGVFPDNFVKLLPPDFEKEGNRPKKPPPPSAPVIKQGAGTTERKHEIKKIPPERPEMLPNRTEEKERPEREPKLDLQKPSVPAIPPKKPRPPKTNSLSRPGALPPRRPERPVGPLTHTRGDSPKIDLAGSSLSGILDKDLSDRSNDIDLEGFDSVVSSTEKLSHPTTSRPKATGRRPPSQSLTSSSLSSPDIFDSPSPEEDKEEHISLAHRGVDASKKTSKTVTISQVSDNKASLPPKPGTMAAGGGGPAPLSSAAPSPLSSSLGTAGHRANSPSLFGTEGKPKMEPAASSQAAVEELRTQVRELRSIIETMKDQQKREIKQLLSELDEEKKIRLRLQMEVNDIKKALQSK

Consider three molecules from publication doi:10.1101/2025.07.04.663186.

No constants are given. Whether binding was seen depends on the method and setting. Binding seen in cells or lysates may run through a third protein. Where a sequence is shown, tags or fusion partners need not be part of it.

The assay addresses GFP-MYO1FΔSH3 (human) (UniProt O00160). The assay is described as follows: co-IP.
With “myc-ASAP-3' (aa 589 - aa1129) (from UniProt Q9ULH1 589-1129) (domain or fragment)”, the binding result was “no binding”. myc-SH3KBP1 (from UniProt Q96B97 1-665): the binding entry is “no binding”.

For B1, the binding entry was “no binding”.
